Library screening results

Protein sequences, listed by entry. Tags and fused reporters are not part of them.
UniProt E9BF75, entry or part of it: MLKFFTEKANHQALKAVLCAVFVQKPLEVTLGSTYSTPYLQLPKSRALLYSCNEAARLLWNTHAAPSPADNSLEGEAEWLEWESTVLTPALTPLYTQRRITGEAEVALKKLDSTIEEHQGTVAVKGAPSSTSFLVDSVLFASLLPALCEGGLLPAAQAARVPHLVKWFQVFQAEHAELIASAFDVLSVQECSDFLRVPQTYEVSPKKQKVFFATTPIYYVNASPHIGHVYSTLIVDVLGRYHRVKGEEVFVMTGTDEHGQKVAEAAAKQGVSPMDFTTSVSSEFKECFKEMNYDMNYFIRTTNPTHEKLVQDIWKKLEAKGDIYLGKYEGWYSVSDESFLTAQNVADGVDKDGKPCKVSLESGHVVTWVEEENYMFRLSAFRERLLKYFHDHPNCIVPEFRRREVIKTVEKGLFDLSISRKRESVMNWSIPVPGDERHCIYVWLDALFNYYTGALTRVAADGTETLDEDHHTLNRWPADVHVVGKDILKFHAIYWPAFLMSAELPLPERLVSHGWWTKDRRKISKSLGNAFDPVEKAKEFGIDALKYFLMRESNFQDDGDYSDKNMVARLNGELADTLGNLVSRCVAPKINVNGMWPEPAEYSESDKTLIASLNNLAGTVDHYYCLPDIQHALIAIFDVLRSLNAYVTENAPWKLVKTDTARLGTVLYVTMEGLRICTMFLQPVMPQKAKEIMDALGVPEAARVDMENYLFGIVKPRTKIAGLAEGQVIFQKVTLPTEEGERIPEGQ

The values are deposited in ChEMBL (CHEMBL3988442, “University of Dundee, Small-Polar-MMV Screening Library” (2021)).

Results are percentages, as filed. The record does not define 0% and 100%; most values in the screen are far below 50% and negative numbers occur (in some assays of this library far below -100). The compounds are a random part of those screened.

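Primary screen of methionyl-tRNA synthetase; the read-out is not stated. Target: Methionyl-tRNA synthetase (putative), Leishmania donovani (UniProt E9BF75). The test concentration is not given. The values are filed as inhibition. Size under these conditions: about 68,000 compounds, about 24 of them at 50% or above in at least one test.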

compound | inhibition
CCNC(=O)NC(=O)CN1CCCC1c1nc(C2CCCCC2)co1 (configuration not stated) | 11.63%
CSc1ccc(C(=O)N2CC(=O)N(CC(C)(C)C)CC(O)C2)cc1 (configuration not stated) | 10.68%
Cc1ccccc1Cn1nnc2cc3c(cc2c1=O)OCCO3 | 16.71%
O=C(c1cccnc1-n1cncn1)N1CCC(Nc2ccccc2)CC1 | 15.22%
Nc1no[n+]([O-])c1C(=O)NCc1ccccn1 | 16.13%
CC1N(CC2CC2)C(=O)COC12CCN(C(=O)c1ccncc1)CC2 (configuration not stated) | 13.04%
CC(=O)N[C@@H]1CN(c2nc(CO)cs2)C[C@H]1c1ccc(C)o1 | 11.39%
O=C1CC2(CCCCN2CC2CC2)CN1c1ccccc1 (configuration not stated) | 12.2%
O=C(CCc1cc(Br)cs1)NCCCn1ccnc1 | 11.98%
CN(C)C(=O)CC1CC2(CCN(c3ncccn3)CC2)c2ccccc21 (configuration not stated) | 17.14%
COc1ccccc1CC(=O)NC(C)c1nc2cccnc2n1C(C)C (configuration not stated) | 10.32%
Cc1cc(C(F)(F)F)nn1CC(C)C(=O)Nc1ccccn1 (configuration not stated) | -2.764%
Cc1nc(C)c(C)c(N2CCC(NCCOc3ccccc3)CC2)n1 | 6.72%
O=C1CC2(CCCC2)CN1CCOc1ccc(F)cc1 | 10%
CC(=O)NCCNC(=O)N(C)Cc1ccc2c(c1)OCCO2 | 8.571%
COc1c(C)cnc(CN2CCOC(Cn3cncn3)C2)c1C (configuration not stated) | 18.31%
O=S1(=O)NC2(CCCN(CCc3ccccc3)C2)COc2ccccc21 (configuration not stated) | 4.571%
COc1ccc(-c2cn(CCn3c(C)cc(C)nc3=O)nn2)cn1 | 7.216%
CC(C(=O)NC(N)=O)N1CCN(c2ccc(C#N)cc2F)CC1 (configuration not stated) | 10.42%
CN(C)CCO[C@@H]1CC[C@H]2[C@H]1OCCN2C(=O)c1ccc(F)cc1 | 14.72%
Cc1cc(C)nc(N2CCC(c3c(C(N)=O)sc4ccccc34)C2)n1 (configuration not stated) | 7.979%
CN(Cc1noc(C(C)(C)C)n1)Cc1ccccc1N1CCCCC1 | 6.267%
Cc1ccc(N2CCCN(C(=O)c3cc(Cl)c[nH]3)CC2)nn1 | 23.5%
CS(=O)(=O)N1C[C@H]2CC[C@@H]1CN(Cc1ccncc1)C2 | 10.3%
O=C1OC2(CCNCC2)CN1CC(=O)N1CCCC1c1nccs1 (configuration not stated) | 4.27%
O=C(NC1CC1)N1C[C@H]2CN(Cc3cccc(F)c3)C(=O)[C@H]2C1 | 8%
O=C1CSc2ccccc2N1CC(=O)N1CCCCC1c1nccs1 (configuration not stated) | -13.49%
Cc1nc(C)n(Cc2cccc(NC3CCN(C)C3=O)c2)n1 (configuration not stated) | 10.45%
CCc1cn[nH]c1C1CCN(C(=O)c2cccc(O)c2C)CC1 | -3.014%
CC(C)c1noc(CN(Cc2cccs2)C2CC2)n1 | -0.7874%
CCc1nc(CN2CCCN(C(=O)c3cc(C)on3)CC2)cs1 | 8.355%
O=S1(=O)CCC(N2CCN(c3cc(C(F)(F)F)ccn3)CC2)C1 (configuration not stated) | 6.72%
Cc1ccc(F)cc1S(=O)(=O)N(C)CC(N)=O | 15.5%
NC1CCN(C2CCN(c3ccc(-c4ccco4)cc3)CC2)CC1 | 42.51%
COc1ncccc1CNCc1c(C(C)C)nn(C)c1OC | 5.974%
CCS(=O)(=O)N1CCC2(CC1)COC(COc1cccnc1)C2 (configuration not stated) | 4.38%
CC1=Nc2c(c(=O)[nH]n2C2CCOCC2)C(c2cccc(Br)c2)S1 (configuration not stated) | 12.86%
CC(C)(C)NC(=O)CN1CCNCC1 | -0.2825%
O=C(COC1CCCC1)N1CCC(C(O)c2ccc(F)cc2)CC1 (configuration not stated) | 14.52%
Cn1nc(C(=O)NC2CCCC2)cc1NC(=O)C1CC1 | 15.79%
O=C1COc2ccc(Br)cc2CN1CC1CC1 | 15.6%
O=C(CCn1nc(C(F)(F)F)c(Cl)c1C1CC1)NN1CCOCC1 | 18.7%
CCCN1CCC(Cc2nc(CN3CCN(C)CC3)no2)CC1 | 10.8%
Cc1cc(Cl)ccc1NCc1ccc(C(=O)N(C)C)[nH]1 | 13.71%
Cc1nn(C)c(N(C)C)c1CNCc1nnc2n1CCCCC2 | 11.17%
COCCN(Cc1ccc(F)cc1Cl)C(=O)c1ccc(=O)[nH]n1 | 10.62%
CC(C)CC(=O)N1CCN(C(=O)N(C)C)CC2(CC(=O)N(C)C2)C1 (configuration not stated) | 4.762%
CC(C)(CNC(=O)NCCOc1cccc(F)c1)C(N)=O | 22.45%
Cc1cccc(NCCOc2cccc(C#N)c2)c1C(N)=O | 4.396%
O=C(Cc1ccc2c(c1)OCC2)Nc1nc(C(F)(F)F)n[nH]1 | 13.82%
CCNc1ncc(C(=O)N[C@H](C(N)=O)c2ccccc2)cn1 | -1.064%
N#Cc1cccc(CS(=O)(=O)NCCC(O)c2ccccc2)c1 (configuration not stated) | 11.71%
CC(=O)NCCc1cn(-c2cc(F)ccc2C)cn1 | 17.01%
COCCN1CCC2(CC1)CN(C(=O)c1ccco1)CCO2 | 1.12%
CC(NC(=O)OC(C)(C)C)c1nnc(S(=O)(=O)Cc2ccccc2Cl)o1 (configuration not stated) | 15.45%
CCn1cc(S(=O)(=O)NC2CCCN(CCCc3ccccc3)C2)cn1 (configuration not stated) | 9.408%
COCCOc1ncccc1C(=O)Nc1c(C)cnn1CC1CC1 | 4.348%
NC(=O)C1CCCN1C1CCN(C(=O)c2cccc3c2OCO3)CC1 (configuration not stated) | 14.1%
Cc1cnc(NC(=O)c2ccc(-n3ncc(C#N)c3N)cc2)s1 | 4.225%
CCOC(=O)c1sc(NC(=O)C(C)C)c(C#N)c1C | 11.83%
CS(=O)(=O)N1CCC(C(=O)NC(Cc2ccsc2)c2cccnc2)CC1 (configuration not stated) | -2.825%
O=C(NCCc1ccccc1)c1cccc(S(=O)(=O)NC2CCOC2)c1 (configuration not stated) | 6.25%
Cc1nn(C2CCS(=O)(=O)C2)c(O)c1Cc1ccccc1 (configuration not stated) | 14.24%
Cc1ccccc1C(=O)N1CCOC2(CNCCOC2)C1 (configuration not stated) | 14.86%
CCN(CC(=O)NC(C)C)C(=O)c1ccc(-c2ccsc2)nc1C | 12.75%
CC(C(=O)NCc1ccnc(Oc2ccc(F)cc2)c1)n1cncn1 (configuration not stated) | 17.75%
Cn1ccnc1CN1CCC(Cn2cc(-c3ccncc3)nn2)CC1 | 2.527%
CC(C)n1ccc(C(=O)N2CCCC(n3cncn3)C2)n1 (configuration not stated) | 10.83%
O=C(C1CCC1)N1C[C@@H]2CN(Cc3ccncc3)C(=O)[C@@H]2C1 | 15.25%
CNC(=O)c1cc2c(nc1N(C)C)CCN(S(=O)(=O)C1CC1)CC2 | -1.961%

The last 7 entries again:

* Cc1ccccc1C(=O)N1CCOC2(CNCCOC2)C1 (configuration not stated) | 14.86%
* CCN(CC(=O)NC(C)C)C(=O)c1ccc(-c2ccsc2)nc1C | 12.75%
* CC(C(=O)NCc1ccnc(Oc2ccc(F)cc2)c1)n1cncn1 (configuration not stated) | 17.75%
* Cn1ccnc1CN1CCC(Cn2cc(-c3ccncc3)nn2)CC1 | 2.527%
* CC(C)n1ccc(C(=O)N2CCCC(n3cncn3)C2)n1 (configuration not stated) | 10.83%
* O=C(C1CCC1)N1C[C@@H]2CN(Cc3ccncc3)C(=O)[C@@H]2C1 | 15.25%
* CNC(=O)c1cc2c(nc1N(C)C)CCN(S(=O)(=O)C1CC1)CC2 | -1.961%